# Assay results from patent EP0312157A2, “Tetrapeptide renin inhibitors having a novel c-terminal amino acid” (Merck & Co., Inc., priority 1987, dated 1989).
# pIC50: −log10 of the molar value. Counter-ions that a name gives are not always drawn. At least one compound was matched to its structure with a doubt left.
# Molecular target: T1, renin (Homo sapiens, UniProt P00797)
# T1 sequence (P00797 67-406): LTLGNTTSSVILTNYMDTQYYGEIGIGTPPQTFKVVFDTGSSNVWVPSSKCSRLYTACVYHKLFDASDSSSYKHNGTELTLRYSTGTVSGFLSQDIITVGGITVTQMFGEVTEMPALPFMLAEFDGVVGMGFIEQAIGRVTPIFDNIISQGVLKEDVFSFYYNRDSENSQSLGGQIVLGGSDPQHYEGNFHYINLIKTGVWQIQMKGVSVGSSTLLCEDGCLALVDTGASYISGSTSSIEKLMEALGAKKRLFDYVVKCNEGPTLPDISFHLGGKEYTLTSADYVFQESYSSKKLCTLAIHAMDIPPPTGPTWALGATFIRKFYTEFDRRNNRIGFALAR
# Assay: renin inhibition, IC50 (method not described)
# Assay type: biochemical
smiles,measurement,value
"CC(C)(C)OC(=O)N[C@@H](Cc1ccccc1)C(=O)N[C@@H](Cc1c[nH]cn1)C(=O)N[C@@H](CC1CCCCC1)[C@@H](O)CC(=O)N[C@@H](CCCCN)C(=O)N1CCOCC1 [Example 13, N^α-t-butoxycarbonyl-L-phenylalanyl-L-histidyl-(3S,4S)-4-amino-5-cyclohexyl-3-hydroxypentanoyl-L-lysyl-N-morpholine amide hydrochloride]",pIC50,6.54
